Reference: the supplement of paper PMC2577665

These sequences were tested on ERE-luciferase reporter with exogenous ERalpha in HeLa cells (assay: relative ERE luciferase activity (Firefly/Renilla) upon cDNA overexpression, relative to empty vector (fold of empty vector); higher = stronger ERalpha transactivation (less repression)). Conditions: 17beta-estradiol: 10 nM; 12 h.
In the case of “MALAARLLPQFLHSRSLPCGAVRLRTPAVAEVRLPSATLCYFCRCRLGLGAALFPRSARALAASALPAQGSRWPVLSSPGLPAAFASFPACPQRSYSTEEKPQQHQKTKMIVLGFSNPINWVRTRIKAFLIWAYFDKEFSITEFSEGAKQAFAHVSKLLSQCKFDLLEELVAKEVLHALKEKVTSLPDNHKNALAANIDEIVFTSTGDISIYYDEKGRKFVNILMCFWYLTSANIPSETLRGASVFQVKLGNQNVETKQLLSASYEFQREFTQGVKPDWTIARIEHSKLLE [C2orf47]”, the “relative ERE luciferase activity” value is reported as 1.13.
“MALCEAAGCGSALLWPRLLLFGDSITQFSFQQGGWGASLADRLVRKCDVLNRGFSGYNTRWAKIILPRLIRKGNSLDIPVAVTIFFGANDSALKDENPKQHIPLEEYAANLKSMVQYLKSVDIPENRVILITPTPLCETAWEEQCIIQGCKLNRLNSVVGEYANACLQVAQDCGTDVLDLWTLMQDSQDFSSYLSDGLHLSPKGNEFLFSHLWPLIEKKVSSLPLLLPYWRDVAEAKPELSLLGDGDH [IAH1]” was tested, and the “relative ERE luciferase activity” value was 0.788.
“MALKVLLEQEKTFFTLLVLLGYLSCKVTCESGDCRQQEFRDRSGNCVPCNQCGPGMELSKECGFGYGEDAQCVTCRLHRFKEDWGFQKCKPCLDCAVVNRFQKANCSATSDAICGDCLPGFYRKTKLVGFQDMECVPCGDPPPPYEPHCASKVNLVKIASTASSPRDTALAAVICSALATVLLALLILCVIYCKRQFMEKKPSWSLRSQDIQYNGSELSCFDRPQLHEYAHRACCQCRRDSVQTCGPVRLLPSMCCEEACSPNPATLGCGVHSAASLQARNAGPAGEMVPTFFGSLTQSICGEFSDAWPLMQNPMGGDNISFCDSYPELTGEDIHSLNPELESSTSLDSNSSQDLVGGAVPVQSHSENFTAATDLSRYNNTLVESASTQDALTMRSQLDQESGAVIHPATQTSLQVRQRLGSL [TNFRSF19]” was tested, and the “relative ERE luciferase activity” value was 2.23.
For “MALLFARSLRLCRWGAKRLGVASTEAQRGVSFKLEEKTAHSSLALFRDDTGVKYGLVGLEPTKVALNVERFREWAVVLADTAVTSGRHYWEVTVKRSQQFRIGVADVDMSRDSCIGVDDRSWVFTYAQRKWYTMLANEKAPVEGIGQPEKVGLLLEYEAQKLSLVDVSQVSVVHTLQTDFRGPVVPAFALWDGELLTHSGLEVPEGL [SPRYD4]”, the “relative ERE luciferase activity” value was 1.22.
In the case of “MANRTVKDAHSIHGTNPQYLVEKIIRTRIYESKYWKEECFGLTAELVVDKAMELRFVGGVYGGNIKPTPFLCLTLKMLQIQPEKDIIVEFIKNEDFKYVRMLGALYMRLTGTAIDCYKYLEPLYNDYRKIKSQNRNGEFELMHVDEFIDELLHSERVCDIILPRLQKRYVLEEAEQLEPRVSALEEDMDDVESSEEEEEEDEKLERVPSPDHRRRSYRDLDKPRRSPTLRYRRSRSRSPRRRSRSPKRRSPSPRRERHRSKSPRRHRSRSRDRRHRSRSKSPGHHRSHRHRSHSKSPERSKKSHKKSRRGNE [PRPF38A]”, the “relative ERE luciferase activity” value is reported as 1.32.
In the case of “MANYYEVLGVQASASPEDIKKAYRKLALRWHPDKNPDNKEEAEKKFKLVSEAYEVLSDSKKRSLYDRAGCDSWRAGGGASTPYHSPFDTGYTFRNPEDIFREFFGGLDPFSFEFWDSPFNSDRGGRGHGLRGAFSAGFGEFPAFMEAFSSFNMLGCSGGSHTTFSSTSFGGSSSGSSGFKSVMSSTEMINGHKVTTKRIVENGQERVEVEEDGQLKSVTVNGKEQLKWMDSK [DNAJB8]”, the “relative ERE luciferase activity” value is reported as 1.07.
With “MAPKAAKGAKPEPAPAPPPPGAKPEEDKKDGKEPSDKPQKAVQDHKEPSDKPQKAVQPKHEVGTRRGCRRYRWELKDSNKEFWLLGHAEIKIRSLGCLIAAMILLSSLTVHPILRLIITMEISFFSFFILLYSFAIHRYIPFILWPISDLFNDLIACAFLVGAVVFAVRSRRSMNLHYLLAVILIGAAGVFAFIDVCLQRNHFRGKKAKKHMLVPPPGKEKGPQQGKGPEPAKPPEPGKPPGPAKGKK [CMTM2]” the “relative ERE luciferase activity” value was 2.26 ± 0.6.
With “MAQAKINAKANEGRFCRSSSMADRSSRLLESLDQLELRVEALREAATAVEQEKEILLEMIHSIQNSQDMRQISDGEREELNLTANRLMGRTLTVEVSVETIRNPQQQESLKHATRIIDEVVNKFLDDLGNAKSHLMSLYSACSSEVPHGPVDQKFQSIVIGCALEDQKKIKRRLETLLRNIENSDKAIKLLEHSKGAGSKTLQQNAESRFN [BAG2]” the “relative ERE luciferase activity” value was 1.03 ± 0.23.
In the case of “MAREPRKNAALDAQSAEDQTGLLTVKVEKEEASALTAEVRAPCSPARGPERSRQRFRGFRYPEAAGPREALSRLRELCGQWLQPEMHSKEQILELLVLEQFLTILPGNLQSWVREQHPESGEEVVVLLEYLERQLDEPAPQVPVGDQGQELLCCKMALLTQTQGSQSSQCQPMKALFKHESLGSQPLHDRVLQVPGLAQGGCCREDAMVASRLTPGSQGLLKMEDVALTLTPGWTQLDSSQVNLYRDEKQENHSSLVSLGGEIQTKSRDLPPVKKLPEKEHGKICHLREDIAQIPTHAEAGEQEGRLQRKQKNAIGSRRHYCHECGKSFAQSSGLTKHRRIHTGEKPYECEDCGKTFIGSSALVIHQRVHTGEKPYECEECGKVFSHSSNLIKHQRTHTGEKPYECDDCGKTFSQSCSLLEHHKIHTGEKPYQCNMCGKAFRRNSHLLRHQRIHGDKNVQNPEHGESWESQGRTESQWENTEAPVSYKCNECERSFTRNRSLIEHQKIHTGEKPYQCDTCGKGFTRTSYLVQHQRSHVGKKTLSQ [ZKSCAN4]”, the “relative ERE luciferase activity” value is reported as 1.0461 ± 0.00043.
For “MARPDPSAPPSLLLLLLAQLVGRAAAASKAPVCQEITVPMCRGIGYNLTHMPNQFNHDTQDEAGLEVHQFWPLVEIQCSPDLRFFLCSMYTPICLPDYHKPLPPCRSVCERAKAGCSPLMRQYGFAWPERMSCDRLPVLGRDAEVLCMDYNRSEATTAPPRPFPAKPTLPGPPGAPASGGECPAGGPFVCKCREPFVPILKESHPLYNKVRTGQVPNCAVPCYQPSFSADERTFATFWIGLWSVLCFISTSTTVATFLIDMERFRYPERPIIFLSACYLCVSLGFLVRLVVGHASVACSREHNHIHYETTGPALCTIVFLLVYFFGMASSIWWVILSLTWFLAAGMKWGNEAIAGYAQYFHLAAWLIPSVKSITALALSSVDGDPVAGICYVGNQNLNSLRGFVLGPLVLYLLVGTLFLLAGFVSLFRIRSVIKQGGTKTDKLEKLMIRIGIFTLLYTVPASIVVACYLYEQHYRESWEAALTCACPGHDTGQPRAKPEYWVLMLKYFMCLVVGITSGVWIWSGKTVESWRRFTSRCCCRPRRGHKSGGAMAAGDYPEASAALTGRTGPPGPAATYHKQVSLSHV [FZD5]”, the “relative ERE luciferase activity” value was 1.03.
For “MARRRRRACIALFLVLLFAFGTLMGLRTLKAPDGLPALGPGLELAPFERRPEGAPAPAARAPAAPAAPPPPPPPPRTADPGGSPGPAPAEAEPAPVQSLRVYSDLHAFYYSWYGSPRREGHYIHWDHVMVPHWDPKISASYPRGRHSPPDDLGSSFYPELGPYSSRDPEVLREHMTQLKEAAIGVLVLSWYPPGMADDNGEPSDDLVPAILDTAHQYSIQVAFHIQPYKGRDDITVHDNIKYIIDTYGSHGAFYRYKNSMGKSLPLFYIYDSYLTSPEAWAHLLTPNGPHSIRNTPYDGVFIALLVEEGHTHDILAAGFDGMYTYFASNGFSFGSSHQNWKAVKNFCDANNLMFIPSVGPGYIDTSIRPWNNHNTRNRVNGKYYETALQAALTVRPEIVSITSFNEWHEGTQIEKAIPKKTPTRLYLDYLPHQPSLYLELTRRWAEHFIKEKEQWLM [MANEAL]”, the “relative ERE luciferase activity” value was 1.22 ± 0.051.
For “MASADSRRVADGGGAGGTFQPYLDTLRQELQQTDPTLLSVVVAVLAVLLTLVFWKLIRSRRSSQRAVLLVGLCDSGKTLLFVRLLTGLYRDTQTSITDSCAVYRVNNNRGNSLTLIDLPGHESLRLQFLERFKSSARAIVFVVDSAAFQREVKDVAEFLYQVLIDSMGLKNTPSFLIACNKQDIAMAKSAKLIQQQLEKELNTLRVTRSAAPSTLDSSSTAPAQLGKKGKEFEFSQLPLKVEFLECSAKGGRGDVGSADIQDLEKWLAKIA [SRPRB]”, the “relative ERE luciferase activity” value was 1.14.
With “MASLQRKGLQARILTSEEEEKLKRDQTLVSDFKQQKLEQEAQKNWDLFYKRNSTNFFKDRHWTTREFEELRSCREFEDQKLTMLEAGCGVGNCLFPLLEEDPNIFAYACDFSPRAIEYVKQNPLYDTERCKVFQCDLTKDDLLDHVPPESVDVVMLIFVLSAVHPDKMHLVLQNIYKVLKPGKSVLFRDYGLYDHAMLRFKASSKLGENFYVRQDGTRSYFFTDDFLAQLFMDTGYEEVVNEYVFRETVNKKEGLCVPRVFLQSKFLKPPKNPSPVVLGLDPKS [METTL6]” the “relative ERE luciferase activity” value was 1.03.
For “MASMPPTPEAQGPILFEDLAVYFSQEECVTLHPAQRSLSKDGTKESLEDAALMGEEGKPEINQQLSLESMELDELALEKYPIAAPLVPYPEKSSEDGVGNPEAKILSGTPTYKRRVISLLVTIENHTPLVELSEYLGTNTLSEILDSPWEGAKNVYKCPECDQNFSDHSYLVLHQKIHSGEKKHKCGDCGKIFNHRANLRTHRRIHTGEKPYKCAKCSASFRQHSHLSRHMNSHVKEKPYTCSICGRGFMWLPGLAQHQKSHSAENTYESTNCDKHFNEKPNLALPEETFVSGPQYQHTKCMKSFRQSLYPALSEKSHDEDSERCSDDGDNFFSFSKFKPLQCPDCDMTFPCFSELISHQNIHTEERPHKCKTCEESFALDSELACHQKSHMLAEPFKCTVCGKTFKSNLHLITHKRTHIKNTT [ZNF597]”, the “relative ERE luciferase activity” value was 1.18.
With “MASPAPPEHAEEGCPAPAAEEQAPPSPPPPQASPAERQQQEEEAQEAGAAEGAGLQVEEAAGRAAAAVTWLLGEPVLWLGCRADELLSWKRPLRSLLGFVAANLLFWFLALTPWRVYHLISVMILGRVIMQIIKDMVLSRTRGAQLWRSLSESWEVINSKPDERPRLSHCIAESWMNFSIFLQEMSLFKQQSPGKFCLLVCSVCTFFTILGSYIPGVILSYLLLLCAFLCPLFKCNDIGQKIYSKIKSVLLKLDFGIGEYINQKKRERSEADKEKSHKDDSELDFSALCPKISLTVAAKELSVSDTDVSEVSWTDNGTFNLSEGYTPQTDTSDDLDRPSEEVFSRDLSDFPSLENGMGTNDEDELSLGLPTELKRKKEQLDSGHRPSKETQSAAGLTLPLNSDQTFHLMSNLAGDVITAAVTAAIKDQLEGVQQALSQAAPIPEEDTDTEEGDDFELLDQSELDQIESELGLTQDQEAEAQQNKKSSGFLSNLLGGH [FAM134B]” the “relative ERE luciferase activity” value was 1.23.
For “MATEAPVNIAPPECSTVVSTAVDSLIWQPNSLNMHMIRPKSAKGRTRPSLQKSQGVEVCAHHIPSPPPAIPYELPSSQKPGACAPKSPNQGASDEIPELQQQVPTGASSSLNKYPVLPSINRKNLEEEAVETVAKKASSLQLSSIRALYQDETGTMKTSEEDSRARACAVERKFIVRTKKQGSSRAGNLEEPSDQEPRLLLAVRSPTGQRFVRHFRPTDDLQTIVAVAEQKNKTSYRHCSIETMEVPRRRFSDLTKSLQECRIPHKSVLGISLEDGEGWP [UBXD3]”, the “relative ERE luciferase activity” value was 1.
“MATKPTEPVTILSLRKLSLGTAEPQVKEPKTFTVEDAVETIGFGRFHIALFLIMGSTGVVEAMEIMLIAVVSPVIRCEWQLENWQVALVTTMVFFGYMVFSILFGLLADRYGRWKILLISFLWGAYFSLLTSFAPSYIWFVFLRTMVGCGVSGHSQGLIIKTEFLPTKYRGYMLPLSQVFWLAGSLLIIGLASVIIPTIGWRWLIRVASIPGIILIVAFKFIPESARFNVSTGNTRAALATLERVAKMNRSVMPEGKLVEPVLEKRGRFADLLDAKYLRTTLQIWVIWLGISFAYYGVILASAELLERDLVCGSKSDSAVVVTGGDSGESQSPCYCHMFAPSDYRTMIISTIGEIALNPLNILGINFLGRRLSLSITMGCTALFFLLLNICTSSAGLIGFLFMLRALVAANFNTVYIYTAEVYPTTMRALGMGTSGSLCRIGAMVAPFISQVLMSASILGALCLFSSVCVVCAISAFTLPIETKGRALQQIK [SVOPL]” was tested, and the “relative ERE luciferase activity” value was 1.14.

± gives the standard deviation of the averaged measurements. This is a noisy data set.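 Each test well overexpressed one poorly characterized human cDNA in ERalpha-negative HeLa cells together with transfected ERalpha and a reporter carrying two estrogen response elements. A gene counted as a repressor hit if it cut the signal to the level of the BRCA1 positive control (about 0.6 of empty vector) or lower.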
